From PubChem BioAssay AID1508600 (Functional Genomics Laboratory (NCATS/FGL), 2020) come the findings set out here.

In all, about 53,000 sequences went through this assay and about 3,700 (7%) were called active.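 The calls were made as follows: active = gene knockdowns whose robust z-score for IL-1 alpha signal is at least 2 or at most -2, so actives lie on both sides; inactive = the rest.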 The list shows a part of the results.

This test in a line: Components of the Cytosolic LPS Sensing Pathway: Gene Identification via Genome-wide siRNA Screen.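 Also: robust z of the log signal after scaling to non-targeting control siRNA wells of the plate.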 Particulars: RAW264.7 macrophages, IL-1a HTRF, actives lie on both sides, screened at 100 nM (by protocol), cells primed 5 h with Pam3CSK4 first. The method, boiled down: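 RAW264.7 mouse macrophages reverse-transfected with single siRNAs (100 nM final) for 48h, primed with Pam3CSK4 for 5 hours, then transfected with LipidA for 24 hour. Supernatant IL-1a read by HTRF; values normalized to negative-control median, log-transformed robust z-scores.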
For orientation: TR-FRET usually uses a lanthanide donor and a delayed reading to cut background.
With GCAGCUUGUGCAUAUUUGATT against A3galt2, the z-score was inactive: -0.834.
Next, CCACAAAGAAUGCAUUACUTT against Eml3: inactive: -0.912.
The value for GCAGAACCUUAAAAGAAUGTT against Cabyr was inactive: -0.426; that for GGUCAAAGUGAUGCACGCCTT against Sfxn2 was inactive: 0.798.
With GGAGAAGGAGUGCAAUUCCTT against Ptger3, the z-score was inactive: -0.495.
Regarding GGAAGUCAAGCAUAUUGCCTT against Sntb2, the z-score is active: 3.04.
As to GGAGUGGACAAUUUCUUUATT against Fstl4, the z-score was inactive: -0.261.
For the sequence GGUUGUAUUAUUGGCUUUGTT against Snrpe, the z-score was inactive: -1.38.
The value for CGGCAUCCAUCUUUAGUGUTT against Hrh1 was inactive: 0.59; that for CCUACAUUAAGCAAGGGACTT against Stk35 was inactive: 1.23.
As for GCGGUUGUGGUACUUAAGCTT against Nxnl1, the z-score was inactive: 0.601.
As for GCAAAAGUGAUAUUUGCACTT against Aox2, the z-score was inactive: 0.234.
For the sequence GGUCUAUGGUAGUGGAAUATT against Magea7-ps, the z-score is inactive: 1.25.
On to GGCGACACAGCAAAUGAAATT against Serpinb5, for which the z-score was inactive: -0.168.
In the case of GGAUAUACAUCAUUUCUCATT against Tmem131l, the z-score is inactive: 1.03.
With GGAGAUGCUCUGCUGGUGUTT against Cyb561, the z-score is inactive: -0.237.
The value for GGCAGUCAGGAAAUGCUUGTT against Rwdd3 was inactive: -0.212; that for CCAGAGAACCAAGUUAUUUTT against Olfr344 was inactive: -0.527; that for CCUUGCUAGUAGAAUAAACTT against Park7 was inactive: 1.14.
For the sequence CGAGCUAAAUUUCAAGAACTT against Tcp11x2, the z-score was inactive: 0.312.
As to GGCAACGAUGAAAACUACUTT against Runx1, the z-score was inactive: 1.07.
Next, GGACAAGACCAUCUUCGAUTT against Sectm1a: inactive: 0.21; GCUGCGCAUCCACUUAGAUTT against Tmed11: inactive: -0.964; GGCCGACAAUUUGUCAGUUTT against Uaca: inactive: -1.19.
In the case of GCCAGUUUCCAGUCCUUGUTT against Dppa5a, the z-score is inactive: -0.2.
As for GGCAGAACUACAUUGAAAATT against Dusp11, the z-score was inactive: 0.0735.
As to GGAAAAUGCUGACUGAUAUTT against Cts8, the z-score was inactive: 0.231.
Regarding CCUCAAAUGGCCACACACUTT against Kcnj11, the z-score was inactive: -1.27.
As to GGACCCUACAUUCUGUAUATT against Olfr474, the z-score is inactive: 0.0714.
Next, GGAGAUCCGAUGUUAUGUGTT against Atp9a: inactive: -1.12.
For GCAUUCGCUACAAUUCCAUTT against Slc31a1, the z-score is inactive: 0.112.
Next, GCCAAAUUGACUGUAAAUGTT against Lrig2: inactive: -1.9; CCUUAUUCAACCAUACGGCTT against Fut10: inactive: 0.796; GGAAGAAACUUAAAUGAGUTT against Eif3d: inactive: 1.33.
GGUCAUCGAUAAGAAAAGATT against Hunk: the z-score was inactive: -1.09.
GCCAAAACUCUGUUAGAUATT against Anapc7: the z-score is inactive: -0.931.
Turning to GGAGGCCAAGCAGAAAGAGTT against Kars, the z-score was inactive: 0.184.
For GGGAGCAUCAAACAACAAUTT against Tbr1, the z-score is inactive: 0.742.
The value for CCUCCUACUGUUUAAUGUUTT against Exd2 was active: 2.47; that for GGUUAUUAAGUAGCUUUUCTT against Dtx1 was inactive: 1.64.
As to GGUUGUUCCCUUGAAAGGCTT against Gamt, the z-score is inactive: -0.105.
Turning to GGAGCUAGAAAAGACAUACTT against Lmna, the z-score was inactive: 0.949.
For the sequence GGCUCAGAAAGAAGAACUUTT against Pbxip1, the z-score was inactive: 0.273.
On to GGUAGCAGUUGCUUUAAUATT against Siah2, for which the z-score was active: 2.65.
The value for GGGUUAUGACAAGAUGGCUTT against Olfr1440 was inactive: -1.65; that for CUUUAUGGGUCGUGGAGGATT against Hnrnpa3 was inactive: -1.12.
In the case of CGCUGUUAUGGUUACCAUATT against Myoc, the z-score is inactive: 0.785.
Regarding GCUAUUGUUGUUGCAUCUGTT against Vmn1r58, the z-score is inactive: -0.0251.
Take GCCUAUAUCCAUGCACUGGTT against Frg1: the z-score was inactive: -0.579.
Next, GGUCCUCCAGUUAAUGUCATT against Glra3: inactive: -0.916; CGAUGGCUUGGUUCCAUUUTT against Tcaf3: inactive: -0.0976.
Take GUGCAUCAUGUCGGCUUUGTT against Tmem191c: the z-score is inactive: 0.399.
Regarding CCAUUAUGCGUCAAGGCCUTT against Olfr1231, the z-score is inactive: -1.72.
Consider GCGUACGAGCGAAGGAUACTT against Cdc42bpb, for which the z-score was inactive: -0.683.
The value for GCAGAUGCUCUCCUUAAAATT against Siglecg was inactive: 0.922.
With GGCGCAGAUGAAGAAUCCGTT against Stxbp1, the z-score was inactive: 0.0265.
For “GGUGGACCAAAAAGAACUUTT against 4933417A18Rik”, the z-score is inactive: 1.37.
As for GUGAGUUCUAGAACAGCUATT against BC043934, the z-score was inactive: 1.37.
Turning to GGAUGUGAGCACAUCUUCUTT against Bard1, the z-score is inactive: 0.762.
For the sequence GGUCUUGGUAUCAUAUAUGTT against Nrep, the z-score is inactive: 0.16.
As to GGCCUUUGUACAGGACCCATT against Tor2a, the z-score was inactive: -1.01.
Regarding GGAAGGAGAAAGAGUAUGATT against Mnt, the z-score is inactive: 0.525.
For the sequence GGAUCUGCUCACAUAGUCATT against Slc2a2, the z-score was inactive: -0.826.
Turning to GGAACUUGUUUCAUAUCGUTT against Scfd1, the z-score was inactive: 0.839.
With GCUAAUUGCUCCGUACUCCTT against Gm11961, the z-score was inactive: 0.655.
On to GGAUCCAGACACCUCAAGATT against Vxn, for which the z-score was inactive: 0.702.
On to CCACGAAAACGUGAAAUAUTT against Gpd1l, for which the z-score is inactive: -0.0886.
For the sequence GGGUAUGGCAUAAAUGUCCTT against Zpbp, the z-score was active: -2.75.
